The values below come from paper doi:10.1101/2020.03.05.978163.

By UniProt entry, the sequences of proteins in these tests, tags left out.
UniProt Q9W420: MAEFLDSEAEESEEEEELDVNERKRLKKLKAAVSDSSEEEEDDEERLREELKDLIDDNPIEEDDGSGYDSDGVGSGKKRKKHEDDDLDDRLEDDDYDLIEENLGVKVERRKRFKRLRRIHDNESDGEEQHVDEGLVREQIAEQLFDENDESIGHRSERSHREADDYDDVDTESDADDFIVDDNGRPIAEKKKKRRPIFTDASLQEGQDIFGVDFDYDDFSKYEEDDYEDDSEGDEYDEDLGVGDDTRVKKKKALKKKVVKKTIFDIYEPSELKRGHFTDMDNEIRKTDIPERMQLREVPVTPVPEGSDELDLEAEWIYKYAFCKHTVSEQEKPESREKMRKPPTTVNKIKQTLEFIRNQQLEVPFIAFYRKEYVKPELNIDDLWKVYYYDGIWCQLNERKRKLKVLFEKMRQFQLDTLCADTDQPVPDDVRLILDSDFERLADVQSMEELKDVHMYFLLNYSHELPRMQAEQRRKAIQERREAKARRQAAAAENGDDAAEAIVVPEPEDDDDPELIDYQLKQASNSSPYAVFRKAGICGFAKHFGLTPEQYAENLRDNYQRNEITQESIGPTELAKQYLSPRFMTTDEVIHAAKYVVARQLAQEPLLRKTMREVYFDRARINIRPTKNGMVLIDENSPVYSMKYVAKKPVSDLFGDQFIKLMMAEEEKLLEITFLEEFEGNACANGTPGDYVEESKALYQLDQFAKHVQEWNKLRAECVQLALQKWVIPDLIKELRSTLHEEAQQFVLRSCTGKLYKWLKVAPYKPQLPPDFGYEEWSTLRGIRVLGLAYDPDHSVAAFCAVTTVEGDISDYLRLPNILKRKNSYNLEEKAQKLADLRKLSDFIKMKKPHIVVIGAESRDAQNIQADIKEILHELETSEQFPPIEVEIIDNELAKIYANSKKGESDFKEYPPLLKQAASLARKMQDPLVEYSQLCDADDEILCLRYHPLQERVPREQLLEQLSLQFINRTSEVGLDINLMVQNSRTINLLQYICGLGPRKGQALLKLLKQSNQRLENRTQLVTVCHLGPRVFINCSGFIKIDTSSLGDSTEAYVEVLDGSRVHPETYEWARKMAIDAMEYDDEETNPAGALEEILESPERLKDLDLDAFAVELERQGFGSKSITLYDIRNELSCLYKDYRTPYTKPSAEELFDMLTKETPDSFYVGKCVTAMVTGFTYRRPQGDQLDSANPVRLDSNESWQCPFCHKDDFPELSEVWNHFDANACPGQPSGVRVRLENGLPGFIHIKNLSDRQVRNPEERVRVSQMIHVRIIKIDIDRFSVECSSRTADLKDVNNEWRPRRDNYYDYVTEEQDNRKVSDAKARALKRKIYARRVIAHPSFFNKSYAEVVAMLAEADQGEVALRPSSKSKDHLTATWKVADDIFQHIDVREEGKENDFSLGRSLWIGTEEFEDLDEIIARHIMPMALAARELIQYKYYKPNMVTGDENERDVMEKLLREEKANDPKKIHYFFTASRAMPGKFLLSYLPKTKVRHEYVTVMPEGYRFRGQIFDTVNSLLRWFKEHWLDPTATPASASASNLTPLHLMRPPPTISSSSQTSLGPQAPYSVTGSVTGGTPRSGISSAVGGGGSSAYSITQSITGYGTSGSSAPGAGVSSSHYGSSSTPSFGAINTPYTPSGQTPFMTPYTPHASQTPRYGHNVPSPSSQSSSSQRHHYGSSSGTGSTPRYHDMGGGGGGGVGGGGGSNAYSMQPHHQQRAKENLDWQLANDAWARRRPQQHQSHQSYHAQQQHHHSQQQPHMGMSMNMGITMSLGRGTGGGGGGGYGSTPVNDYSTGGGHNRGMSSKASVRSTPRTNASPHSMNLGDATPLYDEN

No constants are given. Whether binding was seen depends on the method and setting. Binding seen in cells or lysates may run through a third protein. Some entries that bind do so weakly or less than the wild type. Where a sequence is shown, tags or fusion partners need not be part of it.

This experiment deals with Spt6 (Drosophila) (UniProt Q9W420). The experiment can be described thus: co-IP.

B1: HA-Ythdc1 (protein, UniProt Q9VZQ1 1-721)
chain: MPRAARKQTLPMREMADLDAVHLGLDENEADIAEELQDFEFNTRSEASESNGGDSSDSEPSISSVSTATSSLAGSSKRKTKKPAKQSPQPAVETKSSKSSAKNKAKREPTPEELNGGKKKKRTDSGTKKTTSSEASDKVKSKSPDTEDRQPSAKKSRTKIPSNANDSAGHKSDLSEAEDEKPSLPTLESDSESSDSDSGTQHKRNGGNGGGNGRGKPSSKSSTPEKDSVGGGTHSHSQKGYDYMTKLNYLFRDTRFFLIKSNNSDNVQLSKNKSVWATLPQNDANLNQAFKEARNVLLIFSVNESGKFAGFARMAAPSRRDIPQVAWVLPPSISPKALGGVIELDWICRKELSFNATLHLHNTWNEGKPVKIGRDGQEIEPKIGGELCRLFPEDEQIELTPILKKSKETARVMREKGIHVIYKPPRSLSSRGHGGGGRGGGRGSNHDHLGPMRHKRSYHGAPHHRPYRHHHGMGLPPGGGFKRSGSPYRQMGGAAGAPPGGPGDMAMPSWERYMSSAAAAEAYVADYMRNMHGQLPPLPFVPPFAQLPIPGAGAGAAGALPPGAAAAMYEQLPPPVRYYDGPGAPPLPDYPPPQRPPPPGFDKAPSYEEFAAWKNAGLPTVPPPGFPVYGGAANGGSNGAGGLAAAQAAAAGGGMGAGGGSGGGMGGPGGYRNRDGNNGSAGGRRREYGNRSGGGGSSRDSRPFRERGGGGGQRSYRDNRR
Take B1: the binding result is on record as “binds”.

B2: HA-Fl(2)d (protein, UniProt Q9Y091 1-536)
chain: MSVAAMTMDDQRPCMNSYDKMPPTKYEQNLNILNSSQNSGATGGPASPTPSGLEDHHHHHHPHPHHHHHQEQQQQQQQQQHLQQQQQQQQQQHAAAVAEAVAAAEQRQRLLEDEIENLKLEQVRMAQQCADAQRREKILMRRLANKEQEFQDYVSQIAEYKAQQAPTALALRTALLDPAVNLLFERLKKELKATKAKLEETQNELSAWKFTPDSNTGKRLMAKCRLLYQENEELGKMTSNGRLAKLETELAMQKSFSEEVKKSQSELDDFLQELDEDVEGMQSTILFLQQELKTTRDRIQTLEKENAQLKQAIKDEVVAPAAATNGGTNTTINKLETIHEDACMANNPTNPDCYNGNTNNEQIAAVPQIPLSDDGSNMNGNAARLARKRNYQEEEALPTVVVVPTPTPVGNNVQEAPPIREVTAPRTLPPKKSKLRGITTRRNSQLEEDHQPVTTPVAVPMIVDNAVAGMASEEAAAAAAAVNNSNTGIIPETGVQVGVPVEGGDPGAPAAPGRILTRRRSVRMQQNGSGAVDYST
Consider B2, for which the binding entry is recorded as “binds”.
